# Some of the results follow.
# The chains behind the UniProt entries cited, without tags or fusion partners. Where a name states a change or a piece, a line headed by the entry shows the natural chain unless it says otherwise.
# UniProt Q9BV29: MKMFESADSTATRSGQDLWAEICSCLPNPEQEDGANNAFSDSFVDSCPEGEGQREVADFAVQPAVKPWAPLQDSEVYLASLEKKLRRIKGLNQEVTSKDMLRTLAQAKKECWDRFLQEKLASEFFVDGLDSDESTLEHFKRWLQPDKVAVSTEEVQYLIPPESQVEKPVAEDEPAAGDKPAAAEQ
# UniProt O60826, whole entry, looked up: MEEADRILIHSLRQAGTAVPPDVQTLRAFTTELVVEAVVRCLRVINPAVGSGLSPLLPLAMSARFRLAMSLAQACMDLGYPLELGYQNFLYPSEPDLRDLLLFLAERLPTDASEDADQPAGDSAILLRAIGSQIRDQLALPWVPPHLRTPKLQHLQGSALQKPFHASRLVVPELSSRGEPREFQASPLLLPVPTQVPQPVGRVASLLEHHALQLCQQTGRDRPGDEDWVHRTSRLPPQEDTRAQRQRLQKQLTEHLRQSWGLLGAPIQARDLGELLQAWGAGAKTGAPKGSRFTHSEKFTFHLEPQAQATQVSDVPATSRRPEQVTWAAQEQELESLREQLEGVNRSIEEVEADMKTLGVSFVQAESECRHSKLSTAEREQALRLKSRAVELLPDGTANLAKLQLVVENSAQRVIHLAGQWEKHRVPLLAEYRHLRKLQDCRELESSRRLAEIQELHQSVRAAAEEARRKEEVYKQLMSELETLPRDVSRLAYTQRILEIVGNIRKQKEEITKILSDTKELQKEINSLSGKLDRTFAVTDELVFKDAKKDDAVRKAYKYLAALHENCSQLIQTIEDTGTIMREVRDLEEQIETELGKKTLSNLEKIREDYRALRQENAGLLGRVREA
# UniProt Q8N4S0: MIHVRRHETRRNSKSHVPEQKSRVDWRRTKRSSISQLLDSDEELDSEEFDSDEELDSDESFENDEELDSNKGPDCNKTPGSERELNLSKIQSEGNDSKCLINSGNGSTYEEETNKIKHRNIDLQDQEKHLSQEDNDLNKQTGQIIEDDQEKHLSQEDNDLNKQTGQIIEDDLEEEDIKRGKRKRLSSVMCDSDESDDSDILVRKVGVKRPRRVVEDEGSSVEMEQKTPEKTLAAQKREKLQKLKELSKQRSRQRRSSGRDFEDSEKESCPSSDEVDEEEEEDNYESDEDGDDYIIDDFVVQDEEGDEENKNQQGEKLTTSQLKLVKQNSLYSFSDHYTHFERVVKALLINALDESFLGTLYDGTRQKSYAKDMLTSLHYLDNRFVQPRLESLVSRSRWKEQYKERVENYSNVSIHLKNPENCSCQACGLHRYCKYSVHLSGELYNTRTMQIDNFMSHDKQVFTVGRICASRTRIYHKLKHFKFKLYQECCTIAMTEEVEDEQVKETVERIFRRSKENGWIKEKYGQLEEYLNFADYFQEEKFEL
# UniProt Q96F63: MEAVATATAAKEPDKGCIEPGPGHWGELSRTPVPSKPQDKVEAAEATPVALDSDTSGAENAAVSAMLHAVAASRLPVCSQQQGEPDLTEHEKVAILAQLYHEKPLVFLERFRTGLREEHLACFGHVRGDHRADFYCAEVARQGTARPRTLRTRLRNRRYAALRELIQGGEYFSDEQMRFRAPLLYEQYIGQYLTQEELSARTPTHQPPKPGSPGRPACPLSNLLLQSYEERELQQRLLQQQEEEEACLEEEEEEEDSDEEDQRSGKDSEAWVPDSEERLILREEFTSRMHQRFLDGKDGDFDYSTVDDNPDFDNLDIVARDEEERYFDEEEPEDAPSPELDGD
# UniProt P20248, whole entry, looked up: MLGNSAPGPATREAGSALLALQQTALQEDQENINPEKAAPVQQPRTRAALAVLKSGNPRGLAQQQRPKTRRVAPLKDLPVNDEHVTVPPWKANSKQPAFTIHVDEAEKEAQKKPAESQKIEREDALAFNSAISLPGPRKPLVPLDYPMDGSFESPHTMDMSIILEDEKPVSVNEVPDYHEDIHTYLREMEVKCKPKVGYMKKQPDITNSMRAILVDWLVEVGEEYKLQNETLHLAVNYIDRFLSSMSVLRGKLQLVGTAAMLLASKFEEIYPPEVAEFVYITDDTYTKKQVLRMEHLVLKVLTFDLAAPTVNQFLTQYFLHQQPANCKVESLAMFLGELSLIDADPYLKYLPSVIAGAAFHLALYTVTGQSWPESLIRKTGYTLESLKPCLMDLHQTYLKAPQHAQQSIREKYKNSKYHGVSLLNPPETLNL
# UniProt P20810: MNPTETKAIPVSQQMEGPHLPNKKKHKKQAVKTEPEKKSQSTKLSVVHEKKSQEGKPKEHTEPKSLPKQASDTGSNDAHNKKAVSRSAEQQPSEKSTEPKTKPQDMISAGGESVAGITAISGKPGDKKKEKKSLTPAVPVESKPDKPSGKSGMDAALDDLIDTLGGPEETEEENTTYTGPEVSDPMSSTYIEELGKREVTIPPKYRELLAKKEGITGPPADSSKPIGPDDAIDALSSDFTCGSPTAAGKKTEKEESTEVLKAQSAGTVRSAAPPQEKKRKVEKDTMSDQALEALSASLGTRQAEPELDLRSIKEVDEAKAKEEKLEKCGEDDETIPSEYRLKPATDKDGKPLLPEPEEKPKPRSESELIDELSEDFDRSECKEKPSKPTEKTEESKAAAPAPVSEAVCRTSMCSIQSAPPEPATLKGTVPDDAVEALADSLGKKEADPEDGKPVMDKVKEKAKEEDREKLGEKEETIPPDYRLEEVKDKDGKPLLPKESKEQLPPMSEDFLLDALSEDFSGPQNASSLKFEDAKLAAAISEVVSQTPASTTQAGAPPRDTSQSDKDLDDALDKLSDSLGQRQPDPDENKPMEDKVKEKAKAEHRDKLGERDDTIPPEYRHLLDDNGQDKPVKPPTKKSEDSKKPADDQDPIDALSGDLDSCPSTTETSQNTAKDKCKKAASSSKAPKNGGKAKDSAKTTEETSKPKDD
# UniProt O15446, whole entry, looked up: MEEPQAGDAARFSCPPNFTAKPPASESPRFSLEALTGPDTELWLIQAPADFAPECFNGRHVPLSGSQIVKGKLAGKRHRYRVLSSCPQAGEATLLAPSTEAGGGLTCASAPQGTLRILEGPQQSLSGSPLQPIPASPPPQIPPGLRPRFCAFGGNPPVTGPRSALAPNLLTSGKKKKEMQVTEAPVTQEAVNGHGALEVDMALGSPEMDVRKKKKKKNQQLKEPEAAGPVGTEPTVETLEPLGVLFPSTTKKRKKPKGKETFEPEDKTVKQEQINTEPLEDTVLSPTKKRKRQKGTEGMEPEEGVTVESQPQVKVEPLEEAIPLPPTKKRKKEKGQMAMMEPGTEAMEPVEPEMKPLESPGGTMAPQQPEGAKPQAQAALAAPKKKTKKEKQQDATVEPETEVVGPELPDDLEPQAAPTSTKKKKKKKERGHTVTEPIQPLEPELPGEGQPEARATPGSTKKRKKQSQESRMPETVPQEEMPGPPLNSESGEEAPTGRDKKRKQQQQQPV
# UniProt P14635, whole entry, looked up: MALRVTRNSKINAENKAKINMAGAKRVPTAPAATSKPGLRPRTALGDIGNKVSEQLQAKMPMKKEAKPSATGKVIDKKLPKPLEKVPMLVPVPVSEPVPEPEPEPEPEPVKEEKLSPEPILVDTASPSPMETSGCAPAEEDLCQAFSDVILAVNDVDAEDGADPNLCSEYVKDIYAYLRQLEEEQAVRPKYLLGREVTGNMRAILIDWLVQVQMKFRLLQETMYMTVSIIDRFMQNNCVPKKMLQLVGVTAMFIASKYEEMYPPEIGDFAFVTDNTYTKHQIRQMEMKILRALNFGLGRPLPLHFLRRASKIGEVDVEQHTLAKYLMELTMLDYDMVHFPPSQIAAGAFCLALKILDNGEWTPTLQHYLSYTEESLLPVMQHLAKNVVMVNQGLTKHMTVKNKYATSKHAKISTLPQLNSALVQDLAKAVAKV
# UniProt Q9Y2V2: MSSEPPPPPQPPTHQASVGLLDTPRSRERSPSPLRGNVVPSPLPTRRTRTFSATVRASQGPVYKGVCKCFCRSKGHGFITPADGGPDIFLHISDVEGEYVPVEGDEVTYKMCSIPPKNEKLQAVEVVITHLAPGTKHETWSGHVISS
# UniProt Q567U6, whole entry, looked up: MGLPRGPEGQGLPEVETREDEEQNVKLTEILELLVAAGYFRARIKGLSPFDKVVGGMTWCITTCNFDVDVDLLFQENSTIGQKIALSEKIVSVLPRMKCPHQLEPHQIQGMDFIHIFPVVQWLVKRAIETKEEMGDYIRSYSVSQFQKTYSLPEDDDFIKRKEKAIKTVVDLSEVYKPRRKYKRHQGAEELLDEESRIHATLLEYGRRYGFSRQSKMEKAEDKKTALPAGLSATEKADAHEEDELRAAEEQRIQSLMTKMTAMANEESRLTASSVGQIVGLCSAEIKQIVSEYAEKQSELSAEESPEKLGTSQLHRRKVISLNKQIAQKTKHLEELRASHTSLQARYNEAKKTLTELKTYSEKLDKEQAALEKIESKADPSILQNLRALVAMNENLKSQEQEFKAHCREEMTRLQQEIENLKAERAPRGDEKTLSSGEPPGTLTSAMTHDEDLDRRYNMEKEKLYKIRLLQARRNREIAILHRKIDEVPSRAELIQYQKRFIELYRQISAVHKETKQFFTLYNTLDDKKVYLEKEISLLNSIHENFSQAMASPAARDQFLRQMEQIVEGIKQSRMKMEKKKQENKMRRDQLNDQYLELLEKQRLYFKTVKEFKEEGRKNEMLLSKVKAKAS
# UniProt Q9P219: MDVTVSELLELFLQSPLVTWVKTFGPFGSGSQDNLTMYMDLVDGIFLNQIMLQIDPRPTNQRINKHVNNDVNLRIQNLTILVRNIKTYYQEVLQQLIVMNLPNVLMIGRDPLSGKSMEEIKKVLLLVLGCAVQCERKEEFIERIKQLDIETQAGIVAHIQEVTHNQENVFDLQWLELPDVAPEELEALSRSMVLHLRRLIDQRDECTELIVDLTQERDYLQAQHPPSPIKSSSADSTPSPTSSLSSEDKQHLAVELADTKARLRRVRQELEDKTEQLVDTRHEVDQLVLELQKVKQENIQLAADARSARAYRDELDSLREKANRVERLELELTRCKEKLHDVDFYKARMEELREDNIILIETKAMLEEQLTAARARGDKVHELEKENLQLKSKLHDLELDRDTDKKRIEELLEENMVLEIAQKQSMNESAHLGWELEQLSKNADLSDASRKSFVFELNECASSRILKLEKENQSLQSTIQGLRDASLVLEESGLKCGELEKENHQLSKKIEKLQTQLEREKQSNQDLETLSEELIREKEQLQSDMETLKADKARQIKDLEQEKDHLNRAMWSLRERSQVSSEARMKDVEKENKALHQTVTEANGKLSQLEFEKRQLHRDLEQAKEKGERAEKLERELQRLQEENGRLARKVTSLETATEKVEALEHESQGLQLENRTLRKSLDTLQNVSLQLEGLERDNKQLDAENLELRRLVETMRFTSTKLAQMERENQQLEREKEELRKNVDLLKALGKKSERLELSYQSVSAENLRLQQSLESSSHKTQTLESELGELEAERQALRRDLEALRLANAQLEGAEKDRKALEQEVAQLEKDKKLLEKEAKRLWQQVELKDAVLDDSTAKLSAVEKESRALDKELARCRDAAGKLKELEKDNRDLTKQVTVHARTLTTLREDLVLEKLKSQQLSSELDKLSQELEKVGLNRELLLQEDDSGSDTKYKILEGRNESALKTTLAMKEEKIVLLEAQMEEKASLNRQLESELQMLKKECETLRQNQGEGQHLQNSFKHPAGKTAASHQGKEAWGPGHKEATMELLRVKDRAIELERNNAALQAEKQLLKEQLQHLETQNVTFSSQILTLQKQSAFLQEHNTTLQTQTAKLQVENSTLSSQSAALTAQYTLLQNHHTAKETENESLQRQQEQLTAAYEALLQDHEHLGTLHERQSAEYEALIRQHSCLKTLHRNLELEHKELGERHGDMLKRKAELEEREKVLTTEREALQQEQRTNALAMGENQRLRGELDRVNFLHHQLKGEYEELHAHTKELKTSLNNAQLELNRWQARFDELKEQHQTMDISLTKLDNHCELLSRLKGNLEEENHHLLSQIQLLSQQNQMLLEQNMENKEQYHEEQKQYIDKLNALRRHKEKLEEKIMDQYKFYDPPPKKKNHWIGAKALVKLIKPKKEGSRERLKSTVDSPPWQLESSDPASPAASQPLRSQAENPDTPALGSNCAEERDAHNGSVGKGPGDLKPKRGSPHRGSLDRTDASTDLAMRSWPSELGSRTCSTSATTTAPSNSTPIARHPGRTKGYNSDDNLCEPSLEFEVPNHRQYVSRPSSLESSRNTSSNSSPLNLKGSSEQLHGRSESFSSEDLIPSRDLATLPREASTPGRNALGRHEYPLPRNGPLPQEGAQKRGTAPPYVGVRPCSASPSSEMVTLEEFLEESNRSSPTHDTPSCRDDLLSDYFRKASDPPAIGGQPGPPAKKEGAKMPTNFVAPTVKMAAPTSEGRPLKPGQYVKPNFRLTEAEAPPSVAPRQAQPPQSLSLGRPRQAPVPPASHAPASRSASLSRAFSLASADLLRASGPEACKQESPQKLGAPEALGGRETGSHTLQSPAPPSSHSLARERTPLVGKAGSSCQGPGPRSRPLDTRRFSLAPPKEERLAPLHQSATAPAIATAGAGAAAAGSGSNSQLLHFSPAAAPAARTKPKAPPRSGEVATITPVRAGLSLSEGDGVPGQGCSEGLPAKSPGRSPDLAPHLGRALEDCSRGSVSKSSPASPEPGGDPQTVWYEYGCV
# Columns and labels:
# Experiment in all cases: log2 fold change, soluble protein after heating vs DMSO (PISA); higher = thermal stabilisation; K562 lysate, 10 uM; active = over 0.2 and 3.5 SD of the protein, either way, in both replicates (recomputed)
# vemurafenib = compound: CCCS(=O)(=O)Nc1ccc(F)c(C(=O)c2c[nH]c3ncc(-c4ccc(Cl)cc4)cc23)c1F [vemurafenib]
# Outline: (§1)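 Dounce homogenisation of K562 pellets in PBS pH 7.4 with 1 mM MgCl2 produced a crude extract, used at 1 mg/mL protein. Exposure to 10 μM compound lasted 30 min, and aliquots were then heated for 3 min across 48°C-58°C, pooled and brought to 0.5% NP-40 at 4°C. The supernatant after 21,000xg for 90 min was quantified by TMTpro 16plex LC-MS/MS with channel sums equalised. Duplicate values are given as log-two fold change in thermal stability relative to solvent controls.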
# [1] = compound: CCCS(=O)(=O)Nc1ccc(F)c(C(=O)c2c[nH]c3ncc(Cl)cc23)c1F
# Outline: as §1
# barasertib = compound: CCN(CCCOc1ccc2c(Nc3cc(CC(=O)Nc4cccc(F)c4)[nH]n3)ncnc2c1)CCOP(=O)(O)O [barasertib]
# Outline: as §1
# [2] = compound: CC[C@@H]1C(=O)N(C)c2cnc(Nc3ccc(C(=O)NC4CCN(C)CC4)cc3OC)nc2N1C1CCCC1
# Outline: as §1
# volasertib = compound: CC[C@@H]1C(=O)N(C)c2cnc(Nc3ccc(C(=O)N[C@H]4CC[C@H](N5CCN(CC6CC6)CC5)CC4)cc3OC)nc2N1C(C)C [volasertib]
# Outline: as §1
# [3] = compound: CCn1c(C(=O)N(C2CC2)C2CC2)cc2c3c(ncn3C)c(Nc3cc(C)n(C)n3)nc21
# Outline: as §1
# [4] = compound: CCn1cc(-c2ccnc3[nH]c(-c4cccc(CN(C)C)c4)cc23)c(-c2ccc(NC(=O)N(C)C)cc2)n1
# Outline: as §1
# [5] = compound: CN1CCC(CNc2ccc3ncc(-c4cccc(OC(F)(F)F)c4)n3n2)CC1
# Outline: as §1
# saracatinib = compound: CN1CCN(CCOc2cc(OC3CCOCC3)c3c(Nc4c(Cl)ccc5c4OCO5)ncnc3c2)CC1 [saracatinib]
# Outline: as §1
# sotrastaurin = compound: CN1CCN(c2nc(C3=C(c4c[nH]c5ccccc45)C(=O)NC3=O)c3ccccc3n2)CC1 [sotrastaurin]
# Outline: as §1
# alvocidib = compound: CN1CC[C@H](c2c(O)cc(O)c3c(=O)cc(-c4ccccc4Cl)oc23)[C@H](O)C1 [alvocidib]
# Outline: as §1
# Tubastatin A = compound: CN1CCc2c(c3ccccc3n2Cc2ccc(C(=O)NO)cc2)C1 [Tubastatin A]
# Outline: as §1
# [6] = compound: CNC(=O)C1=CC=CC=C1NC2=NC(=NC=C2Cl)NC3=C(C=C(C=C3)N4CCOCC4)OC
# Outline: as §1
# defactinib = compound: CNC(=O)c1ccc(Nc2ncc(C(F)(F)F)c(NCc3nccnc3N(C)S(C)(=O)=O)n2)cc1 [defactinib]
# Outline: as §1
# [7] = compound: CNc1nc(-c2ccc3c(N)n[nH]c3c2)cc(N2C[C@@H](C(=O)NC3CCCCC3)CC[C@H]2C)n1
# Outline: as §1
# encorafenib = compound: COC(=O)N[C@@H](C)CNc1nccc(-c2cn(C(C)C)nc2-c2cc(Cl)cc(NS(C)(=O)=O)c2F)n1 [encorafenib]
# Outline: as §1
# [8] = compound: COC(=O)[C@H](CCSC)NC(=O)C1=C(C=C(C=C1)NC[C@H](CS)N)C2=CC=CC=C2
# Outline: as §1
# alisertib = compound: COc1cc(Nc2ncc3c(n2)-c2ccc(Cl)cc2C(c2c(F)cccc2OC)=NC3)ccc1C(=O)O [alisertib]
# Outline: as §1
# [9] = compound: COc1cc2nc(-c3cc(F)ccc3O)nc(N[C@@H]3CNC[C@H]3C(C)(C)O)c2cc1OC
# Outline: as §1
# gefitinib = compound: COc1cc2ncnc(Nc3ccc(F)c(Cl)c3)c2cc1OCCCN1CCOCC1 [gefitinib]
# Outline: as §1
Target,log2 fold change (vemurafenib),log2 fold change [1],log2 fold change (barasertib),log2 fold change [2],log2 fold change (volasertib),log2 fold change [3],log2 fold change [4],log2 fold change [5],log2 fold change (saracatinib),log2 fold change (sotrastaurin),log2 fold change (alvocidib),log2 fold change (Tubastatin A),log2 fold change [6],log2 fold change (defactinib),log2 fold change [7],log2 fold change (encorafenib),log2 fold change [8],log2 fold change (alisertib),log2 fold change [9],log2 fold change (gefitinib)
CCDC32 isoform 2 (UniProt Q9BV29),inactive: 0.007,inactive: 0,inactive: 0.351,inactive: -0.041,inactive: 0.021,inactive: -0.061,inactive: -0.246,inactive: 0.065,inactive: 0.021,inactive: -0.012,inactive: -0.102,inactive: -0.033,inactive: -0.061,inactive: 0.095,inactive: 0.04,inactive: 0.055,inactive: -0.065,inactive: -0.098,inactive: -0.045,inactive: -0.026
CCDC22 (UniProt O60826),inactive: -0.054,inactive: 0.026,inactive: 0.052,inactive: -0.053,inactive: -0.013,inactive: 0.026,inactive: -0.027,inactive: -0.01,inactive: 0.01,inactive: 0.028,inactive: 0.024,inactive: -0.063,inactive: 0.012,inactive: -0.03,inactive: 0.009,inactive: 0.031,inactive: -0.029,inactive: 0.002,inactive: -0.009,inactive: 0.027
CD59 isoform 2 (UniProt P13987),inactive: 0.026,inactive: -0.05,inactive: 0.08,inactive: 0.077,inactive: -0.003,inactive: -0.007,inactive: -0.054,inactive: 0.007,inactive: -0.097,inactive: 0.089,inactive: -0.037,inactive: 0.033,inactive: 0.062,inactive: -0.047,inactive: 0.032,inactive: -0.098,inactive: -0.127,inactive: -0.02,inactive: 0.062,inactive: 0.173
CCDC82 (UniProt Q8N4S0),inactive: -0.098,inactive: -0.176,inactive: -0.037,inactive: 0.017,inactive: -0.003,inactive: 0.013,inactive: -0.002,inactive: 0.051,inactive: 0.006,inactive: 0.036,inactive: 0.012,inactive: 0.024,inactive: 0.186,inactive: 0.016,inactive: -0.11,inactive: -0.008,inactive: -0.035,inactive: 0.064,inactive: -0.013,inactive: 0.044
CCT5 (UniProt P48643),inactive: -0.029,inactive: -0.009,inactive: -0.03,inactive: -0.026,inactive: 0.007,inactive: 0.006,inactive: -0.009,inactive: 0.043,inactive: -0.009,inactive: -0.004,inactive: 0.003,inactive: 0.012,inactive: -0.012,inactive: -0.015,inactive: -0.012,inactive: -0.008,inactive: -0.03,inactive: -0.006,inactive: -0.002,inactive: 0
CCDC97 (UniProt Q96F63),inactive: 0.01,inactive: 0.011,inactive: -0.022,inactive: 0.062,inactive: -0.053,inactive: -0.005,inactive: 0.035,inactive: -0.026,inactive: 0.04,inactive: -0.009,inactive: 0.003,inactive: 0.01,inactive: 0.042,inactive: -0.017,inactive: 0.003,inactive: 0.018,inactive: -0.016,inactive: -0.017,inactive: 0.034,inactive: -0.01
CCNA2 (UniProt P20248),inactive: -0.033,inactive: -0.004,inactive: -0.056,inactive: 0.022,inactive: -0.018,inactive: -0.03,inactive: -0.183,inactive: 0.169,inactive: 0.001,inactive: 0,inactive: 0.044,inactive: 0.011,inactive: -0.002,inactive: 0.037,inactive: -0.017,inactive: 0.005,inactive: -0.012,inactive: -0.029,inactive: 0.176,inactive: 0.019
CBR1 (UniProt P16152),inactive: -0.009,inactive: 0.011,inactive: -0.013,inactive: -0.019,inactive: 0.004,inactive: 0,inactive: -0.096,inactive: 0.077,inactive: 0.037,inactive: -0.047,inactive: -0.013,inactive: 0.015,inactive: -0.006,inactive: 0.008,inactive: -0.041,inactive: 0,inactive: 0.02,inactive: -0.024,inactive: 0.023,inactive: -0.068
CAST isoform 6 (UniProt P20810),inactive: 0.007,inactive: 0.005,inactive: -0.035,inactive: 0.059,inactive: 0.011,inactive: -0.037,inactive: 0.01,inactive: 0.009,inactive: -0.001,inactive: -0.019,inactive: -0.002,inactive: 0.031,inactive: 0.004,inactive: -0.025,inactive: -0.022,inactive: 0.014,inactive: -0.055,inactive: -0.014,inactive: 0.005,inactive: -0.022
CD3EAP isoform 2 (UniProt O15446),inactive: 0.012,inactive: 0.016,inactive: -0.022,inactive: 0.056,inactive: -0.006,inactive: -0.055,inactive: -0.109,inactive: 0.007,inactive: 0.009,inactive: -0.009,inactive: -0.033,inactive: 0.009,inactive: 0.009,inactive: 0.026,inactive: 0.062,inactive: 0.033,inactive: -0.184,inactive: -0.006,inactive: 0.012,inactive: -0.032
CCNB1 (UniProt P14635),inactive: 0.032,inactive: -0.021,inactive: 0.019,inactive: 0.03,inactive: -0.043,inactive: -0.031,inactive: -0.023,inactive: -0.012,inactive: 0.002,inactive: -0.038,inactive: -0.015,inactive: 0.021,inactive: -0.003,inactive: -0.117,inactive: 0.028,inactive: 0.029,inactive: -0.023,inactive: 0,active: 0.407,inactive: -0.024
CARHSP1 (UniProt Q9Y2V2),inactive: 0.032,inactive: -0.015,inactive: 0.024,inactive: 0.033,inactive: -0.024,inactive: -0.061,inactive: -0.02,inactive: 0.044,inactive: 0,inactive: -0.042,inactive: 0.031,inactive: 0.065,inactive: 0.009,inactive: -0.033,inactive: 0.078,inactive: -0.013,inactive: -0.055,inactive: -0.014,inactive: 0.01,inactive: -0.029
CBWD5 (UniProt Q5RIA9),inactive: 0.06,inactive: 0.013,inactive: 0.012,inactive: -0.022,inactive: -0.015,inactive: -0.022,inactive: -0.063,inactive: -0.048,inactive: -0.006,inactive: -0.013,inactive: -0.02,inactive: 0.027,inactive: 0.023,inactive: 0.018,inactive: 0.077,inactive: 0.007,inactive: 0.027,inactive: 0.001,inactive: 0.099,inactive: 0.028
CCDC93 (UniProt Q567U6),inactive: 0.021,inactive: 0.007,inactive: 0.064,inactive: -0.021,inactive: -0.038,inactive: 0.01,inactive: -0.011,inactive: 0.029,inactive: 0.042,inactive: 0.025,inactive: -0.051,inactive: -0.052,inactive: 0.008,inactive: 0.002,inactive: -0.017,inactive: 0.025,inactive: 0.013,inactive: 0.081,inactive: 0,inactive: -0.015
CCDC88C (UniProt Q9P219),inactive: 0.028,inactive: 0.047,inactive: 0.282,inactive: 0.213,inactive: -0.061,inactive: 0.011,inactive: -0.023,inactive: 0.018,inactive: -0.079,inactive: -0.014,inactive: -0.06,inactive: -0.014,inactive: 0.153,inactive: 0.057,inactive: -0.07,inactive: -0.347,inactive: 0.256,inactive: 0.079,inactive: 0.108,inactive: -0.03

# 2 successive records out of the list so far, for reference:
Target,log2 fold change (vemurafenib),log2 fold change [1],log2 fold change (barasertib),log2 fold change [2],log2 fold change (volasertib),log2 fold change [3],log2 fold change [4],log2 fold change [5],log2 fold change (saracatinib),log2 fold change (sotrastaurin),log2 fold change (alvocidib),log2 fold change (Tubastatin A),log2 fold change [6],log2 fold change (defactinib),log2 fold change [7],log2 fold change (encorafenib),log2 fold change [8],log2 fold change (alisertib),log2 fold change [9],log2 fold change (gefitinib)
CD59 isoform 2 (UniProt P13987),inactive: 0.026,inactive: -0.05,inactive: 0.08,inactive: 0.077,inactive: -0.003,inactive: -0.007,inactive: -0.054,inactive: 0.007,inactive: -0.097,inactive: 0.089,inactive: -0.037,inactive: 0.033,inactive: 0.062,inactive: -0.047,inactive: 0.032,inactive: -0.098,inactive: -0.127,inactive: -0.02,inactive: 0.062,inactive: 0.173
CCDC82 (UniProt Q8N4S0),inactive: -0.098,inactive: -0.176,inactive: -0.037,inactive: 0.017,inactive: -0.003,inactive: 0.013,inactive: -0.002,inactive: 0.051,inactive: 0.006,inactive: 0.036,inactive: 0.012,inactive: 0.024,inactive: 0.186,inactive: 0.016,inactive: -0.11,inactive: -0.008,inactive: -0.035,inactive: 0.064,inactive: -0.013,inactive: 0.044

# — the supplement of paper PMC10849652
